Source: the supplement of paper PMC6078165
The reference is the same well before dosing, and untreated signal decays as well.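 Cells used are triple-negative breast cancer lines, either basal-like or mesenchymal-like, grown in the absence of fibroblasts. Lower red signal means mitochondrial integrity is lost, a surrogate for apoptosis.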

Experiments:
HCC1143 = test: relative JC-1 red fluorescence (viability) vs pre-drug, monoculture (fraction); higher = more viable cancer cells; settings: coculture fibroblast: none (monoculture)
Procedure: (§1)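 JC-1 labelled TNBC cells grown in monoculture (density kept equal with unlabelled cancer cells) in 384-well plates in FluoroBrite medium, treated with one of 42 anticancer drugs at 0.1, 1, 10 or 100 uM. JC-1 red fluorescence (mitochondrial integrity, surrogate of apoptotic death) was read by plate reader every 8 h for 72 h. Values are normalised to each well's pre-drug value, with background from alamethicin. The stock of one drug was tenfold lower, so its dose labels may be too high. Monoculture values are repeated alongside each fibroblast plate and are averaged here.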

MDAMB436 = test: as above; settings: coculture fibroblast: none (monoculture)
Procedure: as §1

CC(C)(C#N)c1cc(Cn2cncn2)cc(C(C)(C)C#N)c1 [Anastrozole]
relative JC-1 red fluorescence
Settings	8 h	16 h	24 h	32 h	40 h	48 h	56 h	64 h	72 h
HCC1143, 0.1 µM	0.8869	0.774	0.716	0.659	0.62	0.6	0.573	0.567	0.559
HCC1143, 1 µM	0.8567	0.7703	0.7	0.661	0.622	0.6	0.567	0.54	0.512
HCC1143, 10 µM	0.905	0.828	0.752	0.687	0.637	0.5964	0.5675	0.54622	0.5249
HCC1143, 100 µM	0.9189	0.8633	0.8084	0.76	0.7165	0.678	0.652	0.633	0.619
MDAMB436, 0.1 µM	0.8598	0.719	0.732	0.68	0.666	0.65	0.652	0.65	0.648
MDAMB436, 1 µM	0.84	0.743	0.727	0.671	0.67	0.664	0.655	0.647	0.654
MDAMB436, 10 µM	0.8696	0.776	0.786	0.715	0.696	0.677	0.681	0.67	0.677
MDAMB436, 100 µM	0.8802	0.823	0.818	0.781	0.7584	0.7467	0.74	0.7247	0.72

CO[C@H]1C[C@@H]2CC[C@@H](C)[C@@](O)(O2)C(=O)C(=O)N2CCCC[C@H]2C(=O)O[C@H]([C@H](C)C[C@@H]2CC[C@@H](O)[C@H](OC)C2)CC(=O)[C@H](C)/C=C(\C)[C@@H](O)[C@@H](OC)C(=O)[C@H](C)C[C@H](C)/C=C/C=C/C=C/1C [Rapamycin]
relative JC-1 red fluorescence
Settings	8 h	16 h	24 h	32 h	40 h	48 h	56 h	64 h	72 h
HCC1143, 0.1 µM	0.8966	0.809	0.7347	0.68487	0.63	0.6048	0.579	0.572	0.56
HCC1143, 1 µM	0.8888	0.8209	0.74	0.679	0.616	0.578	0.551	0.525	0.517
HCC1143, 10 µM	0.781	0.795	0.79	0.77	0.741	0.725	0.719	0.714	0.698
HCC1143, 100 µM	0.797	0.672	0.563	0.478	0.411	0.357	0.26	0.184	0.21
MDAMB436, 0.1 µM	0.875	0.7341	0.74114	0.677	0.665	0.645	0.635	0.633	0.628
MDAMB436, 1 µM	0.869	0.83	0.846	0.81	0.803	0.809	0.809	0.813	0.831
MDAMB436, 10 µM	0.8442	0.971	0.903	0.86368	0.863	0.752	0.831	0.79	0.828
MDAMB436, 100 µM	0.9683	0.794	0.86	0.826	0.854	0.817	0.818	0.634	0.535

O=C1c2c(O)ccc(O)c2C(=O)c2c(NCCNCCO)ccc(NCCNCCO)c21 [Mitoxantrone]
relative JC-1 red fluorescence
Settings	8 h	16 h	24 h	32 h	40 h	48 h	56 h	64 h	72 h
HCC1143, 0.1 µM	0.8277	0.762	0.719	0.684	0.659	0.631	0.613	0.608	0.589
HCC1143, 1 µM	0.594	0.469	0.479	0.474	0.471	0.471	0.471	0.481	0.471
HCC1143, 10 µM	0.448	0.472	0.706	0.868	0.808	0.713	0.6	0.496	0.409
MDAMB436, 0.1 µM	0.809	0.735	0.716	0.658	0.639	0.629	0.631	0.624	0.62
MDAMB436, 1 µM	0.674	0.587	0.61	0.5679	0.569	0.573	0.565	0.563	0.566
MDAMB436, 10 µM	0.5478	0.43	0.474	0.427	0.371	0.313	0.267	0.216	0.17
